According to patent publication US20030162715A1:
No constants are given. Whether binding was seen depends on the method and setting. Binding seen in cells or lysates may run through a third protein. Some entries that bind do so weakly or less than the wild type. Tags and fused reporters may be left off the sequences shown.

Experiments:
[1] = target: T1, activin B precursor, high molecular weight form of 48-55 kDa (from the activin betaB-myc construct) (human) (UniProt P09529); experiment: co-immunoprecipitation from culture media of co-transfected 293 cells, Western blot
T1 sequence: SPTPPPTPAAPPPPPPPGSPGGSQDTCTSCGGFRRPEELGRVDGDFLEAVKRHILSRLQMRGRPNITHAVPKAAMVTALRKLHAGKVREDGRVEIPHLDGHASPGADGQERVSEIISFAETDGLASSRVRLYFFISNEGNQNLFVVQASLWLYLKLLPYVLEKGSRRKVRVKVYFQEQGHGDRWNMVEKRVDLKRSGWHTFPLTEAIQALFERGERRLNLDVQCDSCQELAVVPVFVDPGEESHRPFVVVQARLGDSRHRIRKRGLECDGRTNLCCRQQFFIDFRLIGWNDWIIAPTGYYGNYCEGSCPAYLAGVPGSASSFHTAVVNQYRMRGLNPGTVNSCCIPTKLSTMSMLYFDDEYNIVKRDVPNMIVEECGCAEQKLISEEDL

[2] = target: T2, activin B, secreted low molecular weight mature form (from the activin betaB-myc construct) (human) (UniProt P09529); experiment: as above
T2 sequence: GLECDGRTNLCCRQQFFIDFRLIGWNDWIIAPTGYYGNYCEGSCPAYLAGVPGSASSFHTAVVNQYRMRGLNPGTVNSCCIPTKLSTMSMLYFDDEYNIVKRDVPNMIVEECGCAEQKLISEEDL

[3] = target: T1, activin B precursor, high molecular weight form of 48-55 kDa (from the activin betaB-myc construct) (human); experiment: co-immunoprecipitation from lysates of co-transfected 293 cells, Western blot

Measured: binding

B1: C-terminal Flag-tagged FLRG (follistatin-3) (protein)
chain: MGSGNPAPGGVCWLQQGQEATCSLVLQTDVTRAECCASGNIDTAWSNLTHPGNKINLLGFLGLVHCLPCKDSCDGVECGPGKACRMLGGRPRCECAPDCSGLPARLQVCGSDGATYRDECELRAARCRGHPDLSVMYRGRCRKSCEHVVCPRPQSCVVDQTGSAHCVVCRAAPCPVPSSPGQELCGNNNVTYISSCHMRQATCFLGRSIGVRHAGSCAGTPEEPPGGESAEEEENFVDYKDDDDK
binds: [1] | [2] | [3]
